Assay results from patent USRE49708.
These are yes or no findings as the source states them, for the method shown. Some results given as binding are weak or reduced against the parent protein; the word gives no strength.

Chains of the proteins cited; added tags and fusions are not shown.
UniProt Q8R0V5: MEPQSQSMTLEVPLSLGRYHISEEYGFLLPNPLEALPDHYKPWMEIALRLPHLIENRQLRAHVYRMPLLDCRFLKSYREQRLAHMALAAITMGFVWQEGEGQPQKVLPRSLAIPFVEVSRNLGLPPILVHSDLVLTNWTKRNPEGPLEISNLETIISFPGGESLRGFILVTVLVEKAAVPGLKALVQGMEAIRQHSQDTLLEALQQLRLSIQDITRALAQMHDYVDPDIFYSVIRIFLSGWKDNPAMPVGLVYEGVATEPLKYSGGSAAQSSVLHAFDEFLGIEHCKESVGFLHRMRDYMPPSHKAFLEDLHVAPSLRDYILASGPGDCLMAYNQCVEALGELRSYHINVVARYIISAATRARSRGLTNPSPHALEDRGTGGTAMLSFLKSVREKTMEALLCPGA

Molecular target: recombinant muIDO2 protein produced with baculovirus vector pVLmuIDO2 (mouse) (UniProt Q8R0V5)
Test: SDS-PAGE of a Mono Q fraction, not reduced or heated (120 kDa band) against heated (about 55 kDa band)

## recombinant muIDO2 protein produced with baculovirus vector pVLmuIDO2 (from UniProt Q8R0V5 1-405) (enzyme)
  binding: binds
